Where two headings read alike, the source gives them in different places.
Experiments:
Details in all cases: 5 min, 30 uM
[1] = system: locust brain (blood-brain barrier)
Protocol: 2. […] The insects may be obtained from local suppliers or bred in house. The grasshoppers were reared under crowded conditions at 28° C. and a 12:12 dark:light photocycle and fed fresh grass and bran. Before experiments the grasshoppers were fed ecologically cultivated wheat for two weeks. Animals used are adult males (in some experiments females) between two to four weeks after adult emergence. […] After various times of exposure the preparation is washed in saline and the brain is dissected under microscope with fine forceps. […] Drug concentration is analysed by HPLC, LC/MSMS or other methods.

[2] = system: locust brain (blood-brain barrier); remark: listed apart in the source
[3] = system: locust brain (blood-brain barrier); remark: listed apart in the source
Protocol: 1. […] The insects may be obtained from local suppliers or bred in house. The grasshoppers were reared under crowded conditions at 28° C. and a 12:12 dark:light photocycle and fed fresh grass and bran. Before experiments the grasshoppers were fed ecologically cultivated wheat for two weeks. Animals used are adult males (in some experiments females) between two to four weeks after adult emergence. […] After various times of exposure the preparation is washed in saline and the brain is dissected under microscope with fine forceps. The neural lamella surrounding the brain is removed in saline and the brain is then […] in saline, centrifuged and the supernatant frozen until analyses. Drug concentration is analysed by HPLC, LC/MSMS or other methods.

CC(C)NCC(O)COc1ccc(CC(N)=O)cc1 (stereo not drawn) [atenolol]
average uptake [1]: 3.74 pmol/brain
average uptake [2]: 0.39 pmol/brain
average uptake [3]: 0.74 pmol/brain
